These are yes or no findings as the source states them, for the method shown. In cells and extracts the contact can be indirect. Some binding calls cover weakened binding; strength is not graded here. Where a sequence is shown, tags or fusion partners need not be part of it. One block for each binder: values may come before it.
Columns and labels:
[1] = biological target: T1, Pyo-tagged KSR1^1–558 (KSR1 NTR) (UniProt Q8IVT5); test: co-IP; lysates of HEK293T cells (Triton lysis buffer: 50 mM Tris-HCl pH 7.5, 150 mM NaCl, 0.2% Triton X-100, 1 mM EDTA, 10% glycerol), starved overnight, treated with DMSO or kinase inhibitors (1 or 10 µM, 2 h); primary antibody and protein A/G beads, 4 °C, 4 h
T1 sequence: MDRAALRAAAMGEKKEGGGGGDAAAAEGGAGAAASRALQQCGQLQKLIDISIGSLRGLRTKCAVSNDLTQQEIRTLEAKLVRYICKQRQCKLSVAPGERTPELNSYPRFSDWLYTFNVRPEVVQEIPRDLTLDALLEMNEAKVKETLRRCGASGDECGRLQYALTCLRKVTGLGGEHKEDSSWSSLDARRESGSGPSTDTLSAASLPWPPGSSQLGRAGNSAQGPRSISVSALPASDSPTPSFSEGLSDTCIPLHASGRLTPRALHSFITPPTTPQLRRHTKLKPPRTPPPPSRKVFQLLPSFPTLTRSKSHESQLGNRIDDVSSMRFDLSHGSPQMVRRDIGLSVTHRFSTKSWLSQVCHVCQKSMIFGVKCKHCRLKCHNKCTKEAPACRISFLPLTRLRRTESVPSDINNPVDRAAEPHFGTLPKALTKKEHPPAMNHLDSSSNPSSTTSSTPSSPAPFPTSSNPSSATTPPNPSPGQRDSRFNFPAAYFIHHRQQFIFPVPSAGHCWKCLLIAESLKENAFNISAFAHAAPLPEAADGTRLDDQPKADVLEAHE

[2] = biological target: T2, Pyo-tagged ARAF^1–287 (ARAF NTR) (UniProt P10398); test: as above
T2 sequence: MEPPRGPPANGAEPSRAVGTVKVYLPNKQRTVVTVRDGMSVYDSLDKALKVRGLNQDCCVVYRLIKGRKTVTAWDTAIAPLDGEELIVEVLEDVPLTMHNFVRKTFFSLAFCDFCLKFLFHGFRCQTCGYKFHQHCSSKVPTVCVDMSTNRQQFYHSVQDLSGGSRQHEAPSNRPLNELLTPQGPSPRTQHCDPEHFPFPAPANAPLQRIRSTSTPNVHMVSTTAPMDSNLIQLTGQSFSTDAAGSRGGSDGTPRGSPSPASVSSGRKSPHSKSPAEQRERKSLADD

- binding [1]: binds
B1: Flag-tagged KSR1^591–899 (KSR1 kinase domain) (domain or fragment, UniProt Q8IVT5 591-899)
chain: PISRKASQTSVYLQEWDIPFEQVELGEPIGQGRWGRVHRGRWHGEVAIRLLEMDGHNQDHLKLFKKEVMNYRQTRHENVVLFMGACMNPPHLAIITSFCKGRTLHSFVRDPKTSLDINKTRQIAQEIIKGMGYLHAKGIVHKDLKSKNVFYDNGKVVITDFGLFGISGVVREGRRENQLKLSHDWLCYLAPEIVREMTPGKDEDQLPFSKAADVYAFGTVWYELQARDWPLKNQAAEASIWQIGSGEGMKRVLTSVSLGKEVSEILSACWAFDLQERPSFSLLMDMLEKLPKLNRRLSHPGHFWKSADI

- binding [2]: binds
B2: Flag-tagged ARAF^288–606 (ARAF kinase domain) (domain or fragment, UniProt P10398 288-606)
chain: KKKVKNLGYRDSGYYWEVPPSEVQLLKRIGTGSFGTVFRGRWHGDVAVKVLKVSQPTAEQAQAFKNEMQVLRKTRHVNILLFMGFMTRPGFAIITQWCEGSSLYHHLHVADTRFDMVQLIDVARQTAQGMDYLHAKNIIHRDLKSNNIFLHEGLTVKIGDFGLATVKTRWSGAQPLEQPSGSVLWMAAEVIRMQDPNPYSFQSDVYAYGVVLYELMTGSLPYSHIGCRDQIIFMVGRGYLSPDLSKISSNCPKAMRRLLSDCLKFQREERPLFPQILATIELLQRSLPKIERSASEPSLHRTQADELPACLLSAARLVP

Source: paper PMC5662619
